Results are given in words; binding and its absence hold for the method and conditions named. Some results given as binding are weak or reduced against the parent protein; the word gives no strength.
Target: Cyno TIGIT-Fc (cynomolgus)
Assay: SPR Biacore T200

B1: humanized anti-TIGIT monoclonal antibody hu20 (antibody, human IgG4 S228P, kappa, V domains shown)
VH: QVQLVQSGAEVKKPGASVKVSCKTSGYAFTEYTMHWVRQAPGKGLEWMGGINPNTGGTTYNQKFQGRVTLTVDKSSSTAYMELSSLRSEDTVVYYCAKLLRLMYYFDYWGQGTLVTVSS
VL: DIQMTQSPSSLSASVGDRVTITCQASQDVRTAVAWYQQKPGKAPKLLIYSASYRYTGVPSRFSGSGSGTDFTFTISSLQPEDIATYYCHQHYITPWTFGGGTKVEIKR
binding: binds

B2: humanized anti-TIGIT antibody hu3 (antibody, human IgG4 S228P, kappa, V domains shown)
VH: QVQLVQSGAEVKKPGASVKVSCKTSGYAFTEYTMHWVRQAPGQGLEWMGGINPNTGGTTYNQKFQGRVTLTVDKSSSTAYMELSRLRSDDTVVYYCAKLLRLMYYFDYWGQGTLVTVSS
VL: DIVMTQSPDSLAVSLGERATINCKASQDVRTAVAWYQQKPGQPPKLLIYSASYRYTGVPDRFSGSGSGTDFTLTISSLQAEDVAVYYCHQHYITPWTFGGGTKVEIKR
binding: binds

Reference: patent US20240067720A1 (SHANGHAI JUNSHI BIOSCIENCES, published 2024)
